Laboratory results: the supplement of paper PMC12823440, “Inhibitors supercharge kinase turnover through native proteolytic circuits” (Nature, 2025)
Structures can show the parent of a compound that is named as a salt. Some of the results follow. Hit calls seldom repeat between salt and free forms of one compound.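 Kinases, fused to nanoluciferase, were expressed in K562 cells; luminescence was measured every 4 h from 2 to 18 h as percent of control (DMSO = 100%, positive control = 0%). A time point is decreased if signal falls significantly (2 sigma). Hits were called by the authors by a rule that is not shown; the count of time points alone does not decide it.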

Chains of the proteins cited; added tags and fusions are not shown. Lines headed by an entry give the natural chain unless they say otherwise; changes in a name come on top.
UniProt Q9UQM7, whole entry: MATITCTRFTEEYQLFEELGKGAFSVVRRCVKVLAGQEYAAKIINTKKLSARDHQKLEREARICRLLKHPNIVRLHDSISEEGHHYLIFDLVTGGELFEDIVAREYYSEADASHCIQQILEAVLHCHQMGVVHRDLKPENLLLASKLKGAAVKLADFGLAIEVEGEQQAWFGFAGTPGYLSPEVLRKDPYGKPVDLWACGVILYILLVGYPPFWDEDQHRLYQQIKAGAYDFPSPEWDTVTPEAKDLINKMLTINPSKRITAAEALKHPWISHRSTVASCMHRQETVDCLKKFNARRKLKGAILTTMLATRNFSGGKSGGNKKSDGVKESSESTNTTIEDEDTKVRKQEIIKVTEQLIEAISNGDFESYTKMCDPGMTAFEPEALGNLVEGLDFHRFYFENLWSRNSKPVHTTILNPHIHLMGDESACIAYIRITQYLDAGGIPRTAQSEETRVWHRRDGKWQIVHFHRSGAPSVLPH
UniProt Q13555: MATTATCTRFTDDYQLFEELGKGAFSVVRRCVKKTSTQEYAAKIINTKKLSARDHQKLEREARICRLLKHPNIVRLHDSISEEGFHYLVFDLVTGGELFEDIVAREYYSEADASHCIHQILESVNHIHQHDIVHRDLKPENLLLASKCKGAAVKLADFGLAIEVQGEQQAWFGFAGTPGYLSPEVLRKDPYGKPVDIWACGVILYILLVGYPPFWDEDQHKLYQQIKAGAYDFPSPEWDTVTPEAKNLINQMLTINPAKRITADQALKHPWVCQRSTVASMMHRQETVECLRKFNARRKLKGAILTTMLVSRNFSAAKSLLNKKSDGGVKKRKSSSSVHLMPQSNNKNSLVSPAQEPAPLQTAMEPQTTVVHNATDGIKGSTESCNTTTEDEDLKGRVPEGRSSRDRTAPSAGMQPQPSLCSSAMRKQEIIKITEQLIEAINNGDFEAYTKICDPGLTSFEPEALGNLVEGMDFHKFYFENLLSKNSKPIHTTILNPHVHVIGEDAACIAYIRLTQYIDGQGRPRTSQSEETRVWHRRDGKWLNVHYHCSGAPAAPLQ
UniProt Q00526: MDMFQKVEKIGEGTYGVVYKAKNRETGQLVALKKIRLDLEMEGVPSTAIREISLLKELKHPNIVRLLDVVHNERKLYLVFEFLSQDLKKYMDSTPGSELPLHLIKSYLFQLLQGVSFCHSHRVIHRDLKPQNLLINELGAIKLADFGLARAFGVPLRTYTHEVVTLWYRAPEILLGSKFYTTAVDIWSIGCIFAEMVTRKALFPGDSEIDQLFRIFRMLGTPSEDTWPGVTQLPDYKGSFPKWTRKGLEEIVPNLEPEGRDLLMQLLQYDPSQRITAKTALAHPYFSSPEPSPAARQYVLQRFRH
UniProt Q00535, whole entry, looked up: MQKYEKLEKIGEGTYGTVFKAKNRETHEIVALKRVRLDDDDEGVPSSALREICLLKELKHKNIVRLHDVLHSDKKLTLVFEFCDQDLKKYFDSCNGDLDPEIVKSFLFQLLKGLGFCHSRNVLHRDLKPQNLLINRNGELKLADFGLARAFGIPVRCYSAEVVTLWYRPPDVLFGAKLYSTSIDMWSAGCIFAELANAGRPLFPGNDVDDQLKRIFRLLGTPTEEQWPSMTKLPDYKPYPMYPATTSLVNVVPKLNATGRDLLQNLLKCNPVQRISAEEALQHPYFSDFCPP
UniProt Q00534, whole entry: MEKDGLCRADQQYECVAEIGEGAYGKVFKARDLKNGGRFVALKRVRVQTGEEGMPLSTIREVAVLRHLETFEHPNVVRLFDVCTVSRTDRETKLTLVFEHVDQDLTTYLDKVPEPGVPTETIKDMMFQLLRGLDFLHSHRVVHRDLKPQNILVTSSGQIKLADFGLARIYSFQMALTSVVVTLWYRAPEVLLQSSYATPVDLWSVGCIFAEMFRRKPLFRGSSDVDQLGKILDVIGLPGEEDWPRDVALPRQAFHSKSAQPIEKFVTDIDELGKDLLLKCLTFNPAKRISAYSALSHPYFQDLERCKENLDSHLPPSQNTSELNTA
UniProt O96017, whole entry: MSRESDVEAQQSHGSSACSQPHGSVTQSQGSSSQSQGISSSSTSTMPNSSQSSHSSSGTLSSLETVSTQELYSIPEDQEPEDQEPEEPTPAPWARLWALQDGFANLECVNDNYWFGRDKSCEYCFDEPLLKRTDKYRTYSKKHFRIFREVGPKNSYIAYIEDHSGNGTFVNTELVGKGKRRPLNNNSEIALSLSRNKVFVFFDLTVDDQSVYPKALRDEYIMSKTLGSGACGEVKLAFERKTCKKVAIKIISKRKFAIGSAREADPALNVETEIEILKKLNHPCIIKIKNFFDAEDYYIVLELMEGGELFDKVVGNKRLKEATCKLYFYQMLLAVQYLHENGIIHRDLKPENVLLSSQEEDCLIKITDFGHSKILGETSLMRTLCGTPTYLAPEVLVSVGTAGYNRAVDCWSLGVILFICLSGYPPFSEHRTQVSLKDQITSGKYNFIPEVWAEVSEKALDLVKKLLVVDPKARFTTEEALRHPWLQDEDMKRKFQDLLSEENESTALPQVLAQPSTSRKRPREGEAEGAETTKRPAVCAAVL
UniProt P07333, whole entry: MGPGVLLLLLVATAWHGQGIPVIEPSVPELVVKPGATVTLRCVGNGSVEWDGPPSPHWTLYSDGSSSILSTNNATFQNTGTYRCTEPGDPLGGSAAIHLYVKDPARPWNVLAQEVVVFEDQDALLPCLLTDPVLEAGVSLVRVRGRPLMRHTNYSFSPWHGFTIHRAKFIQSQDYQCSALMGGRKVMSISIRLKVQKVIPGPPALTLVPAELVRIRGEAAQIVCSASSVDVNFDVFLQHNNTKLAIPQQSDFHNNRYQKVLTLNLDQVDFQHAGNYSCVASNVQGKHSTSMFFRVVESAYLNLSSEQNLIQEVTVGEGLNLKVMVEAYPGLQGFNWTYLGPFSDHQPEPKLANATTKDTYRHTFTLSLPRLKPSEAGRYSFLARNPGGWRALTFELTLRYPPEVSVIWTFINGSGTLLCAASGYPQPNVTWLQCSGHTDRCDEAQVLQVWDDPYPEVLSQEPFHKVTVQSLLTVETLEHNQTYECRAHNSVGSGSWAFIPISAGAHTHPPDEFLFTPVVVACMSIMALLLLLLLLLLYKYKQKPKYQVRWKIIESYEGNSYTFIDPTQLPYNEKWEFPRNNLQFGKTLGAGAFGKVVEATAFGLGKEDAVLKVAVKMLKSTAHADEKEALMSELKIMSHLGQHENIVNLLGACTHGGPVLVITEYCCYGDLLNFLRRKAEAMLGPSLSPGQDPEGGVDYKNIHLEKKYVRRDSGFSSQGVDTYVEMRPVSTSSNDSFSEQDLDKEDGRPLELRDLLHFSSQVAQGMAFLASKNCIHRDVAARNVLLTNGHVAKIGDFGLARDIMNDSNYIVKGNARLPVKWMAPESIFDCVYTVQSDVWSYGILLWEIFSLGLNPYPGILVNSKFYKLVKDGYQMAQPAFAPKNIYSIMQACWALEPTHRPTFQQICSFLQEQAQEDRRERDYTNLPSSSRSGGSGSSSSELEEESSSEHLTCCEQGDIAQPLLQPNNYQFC
UniProt P41240: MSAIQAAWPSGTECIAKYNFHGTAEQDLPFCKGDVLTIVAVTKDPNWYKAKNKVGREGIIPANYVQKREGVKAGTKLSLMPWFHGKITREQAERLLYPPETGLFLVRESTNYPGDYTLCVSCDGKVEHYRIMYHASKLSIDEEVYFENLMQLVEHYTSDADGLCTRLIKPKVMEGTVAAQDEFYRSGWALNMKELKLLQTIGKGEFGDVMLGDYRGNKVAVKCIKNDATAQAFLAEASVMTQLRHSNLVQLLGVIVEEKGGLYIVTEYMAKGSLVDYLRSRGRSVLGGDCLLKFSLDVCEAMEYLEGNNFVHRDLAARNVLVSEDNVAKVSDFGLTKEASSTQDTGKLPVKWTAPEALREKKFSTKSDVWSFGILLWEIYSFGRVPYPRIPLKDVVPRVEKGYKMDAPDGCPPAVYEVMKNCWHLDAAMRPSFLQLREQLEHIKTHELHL
UniProt P48730: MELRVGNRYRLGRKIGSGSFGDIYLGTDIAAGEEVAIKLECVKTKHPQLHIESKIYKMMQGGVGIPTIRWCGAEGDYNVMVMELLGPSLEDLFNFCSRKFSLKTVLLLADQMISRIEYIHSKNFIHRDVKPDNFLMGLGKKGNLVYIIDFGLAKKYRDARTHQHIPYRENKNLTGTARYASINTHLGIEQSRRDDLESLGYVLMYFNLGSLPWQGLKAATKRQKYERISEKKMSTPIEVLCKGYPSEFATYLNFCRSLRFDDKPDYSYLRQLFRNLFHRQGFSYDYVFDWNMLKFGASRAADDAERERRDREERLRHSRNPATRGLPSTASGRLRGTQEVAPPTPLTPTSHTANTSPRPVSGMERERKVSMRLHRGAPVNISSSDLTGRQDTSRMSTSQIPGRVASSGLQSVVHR
UniProt Q08345: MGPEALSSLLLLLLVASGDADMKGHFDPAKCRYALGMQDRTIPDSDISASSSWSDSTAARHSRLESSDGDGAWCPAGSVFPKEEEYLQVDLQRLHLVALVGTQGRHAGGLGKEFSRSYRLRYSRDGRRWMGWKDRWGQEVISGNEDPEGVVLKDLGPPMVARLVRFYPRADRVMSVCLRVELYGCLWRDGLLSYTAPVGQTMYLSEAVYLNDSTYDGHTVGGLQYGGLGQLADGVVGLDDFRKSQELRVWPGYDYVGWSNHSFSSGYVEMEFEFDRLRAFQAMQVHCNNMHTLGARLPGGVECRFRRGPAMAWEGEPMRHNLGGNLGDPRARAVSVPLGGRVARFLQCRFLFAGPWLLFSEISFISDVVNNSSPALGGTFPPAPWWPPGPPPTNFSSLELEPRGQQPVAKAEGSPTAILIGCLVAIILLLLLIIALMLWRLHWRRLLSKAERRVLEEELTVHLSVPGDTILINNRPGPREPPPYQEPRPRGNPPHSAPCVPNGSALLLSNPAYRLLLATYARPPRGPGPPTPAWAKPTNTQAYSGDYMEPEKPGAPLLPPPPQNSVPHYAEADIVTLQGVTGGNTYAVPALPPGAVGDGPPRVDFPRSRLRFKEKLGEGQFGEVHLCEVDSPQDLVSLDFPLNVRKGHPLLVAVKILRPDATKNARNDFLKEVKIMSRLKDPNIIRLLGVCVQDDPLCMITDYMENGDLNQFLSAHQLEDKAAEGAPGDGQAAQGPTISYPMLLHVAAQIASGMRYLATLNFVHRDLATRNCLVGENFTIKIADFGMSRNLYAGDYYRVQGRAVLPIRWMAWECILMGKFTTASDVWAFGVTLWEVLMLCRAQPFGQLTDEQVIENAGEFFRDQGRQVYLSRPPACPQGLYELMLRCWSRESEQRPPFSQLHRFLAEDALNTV
UniProt Q9Y463, whole entry, looked up: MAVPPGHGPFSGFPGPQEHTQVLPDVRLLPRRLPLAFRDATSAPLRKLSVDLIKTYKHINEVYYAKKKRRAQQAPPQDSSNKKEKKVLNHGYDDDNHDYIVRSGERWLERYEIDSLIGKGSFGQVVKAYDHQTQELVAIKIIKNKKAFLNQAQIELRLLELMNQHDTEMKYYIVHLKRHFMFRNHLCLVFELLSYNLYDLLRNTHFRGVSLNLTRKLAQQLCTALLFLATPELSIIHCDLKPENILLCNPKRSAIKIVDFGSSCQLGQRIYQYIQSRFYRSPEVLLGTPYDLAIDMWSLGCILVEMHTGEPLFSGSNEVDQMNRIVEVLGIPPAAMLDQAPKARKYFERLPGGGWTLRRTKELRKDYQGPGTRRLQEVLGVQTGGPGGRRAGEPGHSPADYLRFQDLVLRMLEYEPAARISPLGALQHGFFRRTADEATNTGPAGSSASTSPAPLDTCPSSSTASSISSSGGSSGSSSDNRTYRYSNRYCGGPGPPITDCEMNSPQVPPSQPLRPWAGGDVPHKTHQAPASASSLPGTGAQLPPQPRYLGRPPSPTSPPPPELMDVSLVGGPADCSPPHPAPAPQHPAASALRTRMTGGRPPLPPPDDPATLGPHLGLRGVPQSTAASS
UniProt Q92630: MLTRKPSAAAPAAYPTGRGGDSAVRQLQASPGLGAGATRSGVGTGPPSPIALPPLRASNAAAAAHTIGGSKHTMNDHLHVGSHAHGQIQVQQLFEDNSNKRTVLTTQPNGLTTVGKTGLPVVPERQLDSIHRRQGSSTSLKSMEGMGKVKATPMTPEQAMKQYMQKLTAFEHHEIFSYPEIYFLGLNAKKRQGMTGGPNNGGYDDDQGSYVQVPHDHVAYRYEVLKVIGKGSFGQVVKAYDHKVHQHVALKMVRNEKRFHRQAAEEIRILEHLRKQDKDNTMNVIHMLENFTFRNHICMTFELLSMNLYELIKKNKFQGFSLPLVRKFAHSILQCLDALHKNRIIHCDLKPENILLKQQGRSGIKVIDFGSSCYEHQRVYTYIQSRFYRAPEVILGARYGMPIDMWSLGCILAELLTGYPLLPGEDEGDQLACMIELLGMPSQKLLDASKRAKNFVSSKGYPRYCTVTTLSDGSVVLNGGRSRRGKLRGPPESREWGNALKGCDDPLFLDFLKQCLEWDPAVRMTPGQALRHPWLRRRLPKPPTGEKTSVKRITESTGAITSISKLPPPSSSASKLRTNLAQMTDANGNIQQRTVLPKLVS

Columns and labels:
Test in all cases: number of time points (of 5) at which kinase-Nluc abundance scored as decreased, DMSO-normalised (count); higher = more persistent destabilization
Conditions in all cases: K562; 2-18 h
CAMK2A = CAMK2A (UniProt Q9UQM7)
CAMK2G = CAMK2G (UniProt Q13555)
CDK10 = CDK10 (UniProt Q15131)
CDK2 = CDK2 (UniProt P24941)
CDK3 = CDK3 (UniProt Q00526)
CDK5 = CDK5 (UniProt Q00535)
CDK6 = CDK6 (UniProt Q00534)
CHEK2 = CHEK2 (UniProt O96017)
CSF1R = CSF1R (UniProt P07333)
CSK = CSK (UniProt P41240)
CSNK1A1 = CSNK1A1 (UniProt P48729)
CSNK1D = CSNK1D (UniProt P48730)
DDR1 = DDR1 (UniProt Q08345)
DYRK1B = DYRK1B (UniProt Q9Y463)
DYRK2 = DYRK2 (UniProt Q92630)
EGFR = EGFR (UniProt P00533)
EGFR_G719S = EGFR_G719S (UniProt P00533)
EGFR_G719S_T790M = EGFR_G719S_T790M (UniProt P00533)
EGFR_L718V = EGFR_L718V (UniProt P00533)
EGFR_L858R = EGFR_L858R (UniProt P00533)

| Structure (SMILES) | number of time points (CAMK2A) | number of time points (CAMK2G) | number of time points (CDK10) | number of time points (CDK2) | number of time points (CDK3) | number of time points (CDK5) | number of time points (CDK6) | number of time points (CHEK2) | number of time points (CSF1R) | number of time points (CSK) | number of time points (CSNK1A1) | number of time points (CSNK1D) | number of time points (DDR1) | number of time points (DYRK1B) | number of time points (DYRK2) | number of time points (EGFR) | number of time points (EGFR_G719S) | number of time points (EGFR_G719S_T790M) | number of time points (EGFR_L718V) | number of time points (EGFR_L858R) |
| --- | --- | --- | --- | --- | --- | --- | --- | --- | --- | --- | --- | --- | --- | --- | --- | --- | --- | --- | --- | --- |
| Cc1ccc(C(=O)Nc2ccc(Oc3cc4cnn(C)c4cc3-c3cn[nH]c3)c(F)c2)c(=O)n1-c1ccc(F)cc1 [Merestinib dihydrochloride] (2.5 µM) | 0 | 0 | 0 | 0 | 0 | 0 | 0 | 0 | 0 | 0 | 0 | 0 | 0 | 0 | 0 | 0 | 0 | 0 | 0 | 0 |
| Cc1ccc2cc(-c3c(C)ccc(C(=O)c4c(-c5ccccc5)n(C)n(-c5ccccc5)c4=O)c3N)ccc2n1 (2.5 µM) | 0 | 0 | 0 | 0 | 0 | 0 | 0 | 0 | 0 | 0 | 0 | 0 | 0 | 0 | 0 | 0 | 0 | 0 | 0 | 0 |
| Nc1ncnc2c1c(-c1cccc(OCc3ccccc3)c1)cn2C1CC(CN2CCC2)C1 (stereo not given) (2.5 µM) | 0 | 0 | 0 | 0 | 0 | 0 | 0 | 0 | 0 | 0 | 0 | 0 | 1 | 0 | 0 | 0 | 0 | 0 | 0 | 0 |
| Cc1cccc(-c2[nH]ncc2-c2ccc(F)c(-c3cnn(CCO)c3)c2)n1 (10 µM) | 0 | 0 | 0 | 0 | 0 | 0 | 0 | 0 | 0 | 0 | 0 | 0 | 0 | 0 | 0 | 0 | 0 | 0 | 0 | 0 |
| CNc1nc(Nc2ccc(C(=O)N3CCOCC3)cc2OC)nc2[nH]cc(Cl)c12 (2.5 µM) | 0 | 0 | 0 | 0 | 0 | 0 | 0 | 0 | 0 | 0 | 0 | 0 | 0 | 0 | 0 | 0 | 0 | 0 | 0 | 0 |
| COc1cc(Nc2ncc(F)c(Nc3ccc4c(n3)NC(=O)C(C)(C)O4)n2)cc(OC)c1OC (10 µM) | 0 | 0 | 0 | 4 | 0 | 0 | 0 | 0 | 0 | 0 | 0 | 0 | 0 | 0 | 0 | – | – | – | – | – |
| C[C@@]1(c2ncncc2F)NC(=O)c2cc(-c3cn[nH]c3)ccc21 (10 µM) | 0 | 0 | 0 | 0 | 0 | 0 | 0 | 0 | 0 | 0 | 0 | 0 | 0 | 0 | 0 | 0 | 0 | 0 | 0 | 0 |
| COc1cc(Nc2ncc(F)c(Nc3ccc4c(n3)NC(=O)C(C)(C)O4)n2)cc(OC)c1OC [R406 (free base)] (10 µM) | 0 | 0 | 0 | 0 | 0 | 0 | 0 | 0 | 0 | 0 | 0 | 0 | 0 | 0 | 0 | – | – | – | – | – |
| Cc1cc(Nc2ncnc3ccc(NC4=NC(C)(C)CO4)cc23)ccc1Oc1ccn2ncnc2c1 [Tucatinib] (2.5 µM) | 0 | 0 | 0 | 0 | 0 | 0 | 0 | 0 | 0 | 0 | 0 | 0 | 0 | 0 | 0 | 0 | 0 | 0 | 0 | 0 |
| c1ccc(-c2[nH]ncc2-c2ccnc3ccccc23)nc1 (10 µM) | 0 | 0 | 0 | 0 | 0 | 0 | 0 | 0 | 0 | 0 | 0 | 0 | 0 | 0 | 0 | 0 | 0 | 0 | 0 | 0 |
| CCc1cc2c(cc1N1CCC(N3CCOCC3)CC1)C(C)(C)c1[nH]c3cc(C#N)ccc3c1C2=O [Alectinib] (10 µM) | 0 | 0 | 0 | 0 | 0 | 0 | 0 | 0 | 0 | 0 | 0 | 0 | 0 | 0 | 0 | 0 | 0 | 0 | 0 | 0 |
| O=C1Nc2ccc(C(=O)c3ccco3)cc2C1=Cc1cc(Cl)c(O)c(Cl)c1 (2.5 µM) | 0 | 0 | 0 | 0 | 0 | 0 | 0 | 0 | 0 | 0 | 0 | 0 | 0 | 0 | 0 | 0 | 0 | 0 | 0 | 0 |

Taken from above:
Value of Cc1cccc(-c2[nH]ncc2-c2ccc(F)c(-c3cnn(CCO)c3)c2)n1 (10 µM) under number of time points (DYRK2): 0
Value of COc1cc(Nc2ncc(F)c(Nc3ccc4c(n3)NC(=O)C(C)(C)O4)n2)cc(OC)c1OC [R406 (free base)] (10 µM) under number of time points (CSNK1D): 0
